Assay [1] has as its target T1, STELLO2 (STL2), BiFC fusion (Yn-STL2 / Yc-STL2) (Arabidopsis thaliana) (UniProt Q9SCN0).
T1 sequence: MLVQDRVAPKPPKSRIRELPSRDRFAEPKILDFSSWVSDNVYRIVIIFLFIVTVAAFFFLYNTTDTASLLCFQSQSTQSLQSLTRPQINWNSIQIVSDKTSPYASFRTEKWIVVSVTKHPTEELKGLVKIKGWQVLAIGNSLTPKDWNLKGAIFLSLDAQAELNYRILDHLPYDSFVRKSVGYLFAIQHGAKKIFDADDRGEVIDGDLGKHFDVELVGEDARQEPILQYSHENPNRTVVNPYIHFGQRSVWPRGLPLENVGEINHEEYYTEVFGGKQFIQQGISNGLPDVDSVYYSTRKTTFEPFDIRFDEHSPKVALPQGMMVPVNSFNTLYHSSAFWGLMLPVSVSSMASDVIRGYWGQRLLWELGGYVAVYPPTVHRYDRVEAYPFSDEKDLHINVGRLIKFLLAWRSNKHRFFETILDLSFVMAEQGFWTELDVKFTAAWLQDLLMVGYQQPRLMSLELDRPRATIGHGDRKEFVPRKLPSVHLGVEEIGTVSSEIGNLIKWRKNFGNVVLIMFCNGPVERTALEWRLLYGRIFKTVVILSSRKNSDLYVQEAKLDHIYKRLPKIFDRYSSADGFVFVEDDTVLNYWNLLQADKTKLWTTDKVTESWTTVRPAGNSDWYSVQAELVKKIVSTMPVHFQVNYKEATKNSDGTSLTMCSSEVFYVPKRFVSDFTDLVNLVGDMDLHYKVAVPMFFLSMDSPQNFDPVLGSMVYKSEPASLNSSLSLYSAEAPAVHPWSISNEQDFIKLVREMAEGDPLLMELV
Put plainly: split reporter; BiFC with Yn/Yc halves of VENUS fused to the N-termini; transient co-expression in N. benthamiana epidermal leaf cells, imaged by confocal microscopy 62 h after infiltration.

Assay [2] deals with T2, STELLO1 (STL1), BiFC fusion (Yn-STL1 / Yc-STL1) (Arabidopsis thaliana) (UniProt O22943).
T2 sequence: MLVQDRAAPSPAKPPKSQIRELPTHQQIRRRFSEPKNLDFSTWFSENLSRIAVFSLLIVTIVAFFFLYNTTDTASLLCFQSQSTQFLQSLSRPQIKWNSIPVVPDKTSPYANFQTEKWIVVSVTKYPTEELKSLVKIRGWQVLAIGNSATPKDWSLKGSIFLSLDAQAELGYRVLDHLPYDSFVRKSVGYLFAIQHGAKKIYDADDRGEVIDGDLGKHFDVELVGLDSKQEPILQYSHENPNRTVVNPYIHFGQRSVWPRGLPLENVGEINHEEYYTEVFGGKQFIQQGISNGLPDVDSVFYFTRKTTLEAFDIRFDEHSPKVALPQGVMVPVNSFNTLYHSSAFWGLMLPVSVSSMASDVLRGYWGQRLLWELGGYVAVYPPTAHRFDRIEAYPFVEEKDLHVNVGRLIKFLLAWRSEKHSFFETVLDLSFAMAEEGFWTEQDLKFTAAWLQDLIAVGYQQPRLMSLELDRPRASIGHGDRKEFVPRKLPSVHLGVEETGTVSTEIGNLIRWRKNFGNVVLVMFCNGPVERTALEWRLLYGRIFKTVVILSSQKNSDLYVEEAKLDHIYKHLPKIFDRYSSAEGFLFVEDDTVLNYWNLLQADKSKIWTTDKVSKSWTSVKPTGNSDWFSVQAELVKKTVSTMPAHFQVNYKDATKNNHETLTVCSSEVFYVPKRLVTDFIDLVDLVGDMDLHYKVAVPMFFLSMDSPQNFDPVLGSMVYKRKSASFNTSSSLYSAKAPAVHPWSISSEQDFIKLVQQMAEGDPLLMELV
The assay is described as above.

These are yes or no findings as the source states them, for the method shown. Binding seen in cells or lysates may run through a third protein. Some entries that bind do so weakly or less than the wild type. Sequences can lack the tags named with a protein.

B1: Cellulose synthase CesA6, BiFC fusion (protein, UniProt Q94JQ6 1-1084)
chain: MNTGGRLIAGSHNRNEFVLINADENARIRSVQELSGQTCQICRDEIELTVDGEPFVACNECAFPVCRPCYEYERREGNQACPQCKTRFKRLKGSPRVEGDEEEDDIDDLDNEFEYGNNGIGFDQVSEGMSISRRNSGFPQSDLDSAPPGSQIPLLTYGDEDVEISSDRHALIVPPSLGGHGNRVHPVSLSDPTVAAHPRPMVPQKDLAVYGYGSVAWKDRMEEWKRKQNEKLQVVRHEGDPDFEDGDDADFPMMDEGRQPLSRKIPIKSSKINPYRMLIVLRLVILGLFFHYRILHPVKDAYALWLISVICEIWFAVSWVLDQFPKWYPIERETYLDRLSLRYEKEGKPSGLSPVDVFVSTVDPLKEPPLITANTVLSILAVDYPVDKVACYVSDDGAAMLTFEALSETAEFARKWVPFCKKYCIEPRAPEWYFCHKMDYLKNKVHPAFVRERRAMKRDYEEFKVKINALVATAQKVPEDGWTMQDGTPWPGNSVRDHPGMIQVFLGSDGVRDVENNELPRLVYVSREKRPGFDHHKKAGAMNSLIRVSGVLSNAPYLLNVDCDHYINNSKALREAMCFMMDPQSGKKICYVQFPQRFDGIDRHDRYSNRNVVFFDINMKGLDGLQGPIYVGTGCVFRRQALYGFDAPKKKKGPRKTCNCWPKWCLLCFGSRKNRKAKTVAADKKKKNREASKQIHALENIEEGRVTKGSNVEQSTEAMQMKLEKKFGQSPVFVASARMENGGMARNASPACLLKEAIQVISCGYEDKTEWGKEIGWIYGSVTEDILTGFKMHSHGWRSVYCTPKLAAFKGSAPINLSDRLHQVLRWALGSVEIFLSRHCPIWYGYGGGLKWLERLSYINSVVYPWTSLPLIVYCSLPAICLLTGKFIVPEISNYASILFMALFSSIAITGILEMQWGKVGIDDWWRNEQFWVIGGVSAHLFALFQGLLKVLAGVDTNFTVTSKAADDGEFSDLYLFKWTSLLIPPMTLLIINVIGVIVGVSDAISNGYDSWGPLFGRLFFALWVIIHLYPFLKGLLGKQDRMPTIIVVWSILLASILTLLWVRVNPFVAKGGPILEICGLDCL
Turning to B1, the binding result in assay [1] and in assay [2] was “binds” in each case.
